Laboratory results published in PubChem BioAssay AID1347422 (Sanford-Burnham Center for Chemical Genomics, 2020).
The full ranking holds about 1,000 compounds; the median of “thermal shift dTm” is about 0.19, and the highest 2% start at about 1.7. The list shows a part of the results. Activity calls are given as the source filed them.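 The calls were made as follows: active = mean rise in melting temperature of at least 1 degC over same-plate control wells; inactive = below that, where a call was filed.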

By UniProt entry, the sequences of proteins in these tests, tags left out. Where a name states a change or a piece, a line headed by the entry shows the natural chain unless it says otherwise.
UniProt O00391: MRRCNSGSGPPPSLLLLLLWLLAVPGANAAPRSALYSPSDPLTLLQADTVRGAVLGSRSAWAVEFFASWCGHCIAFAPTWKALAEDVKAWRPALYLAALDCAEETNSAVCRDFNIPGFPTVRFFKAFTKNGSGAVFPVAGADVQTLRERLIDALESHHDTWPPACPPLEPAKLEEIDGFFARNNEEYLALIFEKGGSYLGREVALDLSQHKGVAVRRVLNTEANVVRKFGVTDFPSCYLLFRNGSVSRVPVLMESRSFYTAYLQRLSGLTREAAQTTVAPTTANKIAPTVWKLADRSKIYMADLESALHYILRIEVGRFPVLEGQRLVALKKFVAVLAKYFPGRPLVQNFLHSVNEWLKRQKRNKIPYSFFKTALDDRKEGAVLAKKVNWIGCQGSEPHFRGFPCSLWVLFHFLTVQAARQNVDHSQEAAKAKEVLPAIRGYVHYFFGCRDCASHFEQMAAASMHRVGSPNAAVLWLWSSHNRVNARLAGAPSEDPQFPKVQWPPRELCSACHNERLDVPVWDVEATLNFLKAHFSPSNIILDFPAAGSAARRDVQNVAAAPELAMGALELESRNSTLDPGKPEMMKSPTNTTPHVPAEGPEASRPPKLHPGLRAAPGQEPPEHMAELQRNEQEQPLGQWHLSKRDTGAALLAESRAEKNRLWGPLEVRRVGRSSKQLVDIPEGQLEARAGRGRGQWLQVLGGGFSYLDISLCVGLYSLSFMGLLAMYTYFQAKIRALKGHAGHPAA

These compounds were tested against Sulfhydryl oxidase 1 (Homo sapiens) (UniProt O00391) (assay: QSOX1 binders by thermal stabilization, confirmation, QSOX1 inhibitor project, biophysical, protein thermal shift, single concentration (AID 1347422;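 also: dTm is compound Tm minus mean Tm of DMSO-only wells on that plate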)). Details: recombinant hQSOX1 thermal shift, Sypro Orange, at 25 µM, stronger effect = higher value.
`COc1cc(CO)cc(Cl)c1OCc1cccc2ccccc12` showed a thermal shift dTm of 0.21 °C.
In the case of `CC(=O)Nc1cccc(OCC(=O)Nc2ccc(Cl)cc2)c1`, the thermal shift dTm was 0.25 °C.
Work on `O=C(Nc1ccc(N2CCOCC2)c(Cl)c1)c1ccccn1` yielded a thermal shift dTm of 0.14 °C.
With `O=C(Cn1cnc2ccccc2c1=O)Nc1nnc(SCc2ccccc2Cl)s1` the thermal shift dTm was inactive: -0.04 °C.
`NC(=O)c1ccnc(-c2cc3ccccc3s2)c1` was tested, and the thermal shift dTm was active: 1.16 °C.
In the case of `COc1ccc(C(=O)/C=C/c2cccc(OC)c2)cc1`, the thermal shift dTm was active: 2.07 °C.
`COc1ccc(Cl)cc1NC(=O)Nc1ccccc1F` was tested, and the thermal shift dTm was 0.56 °C.
Compound `CCC(=O)N1CCN(c2ccc(NC(=O)c3cccs3)cc2Cl)CC1` has a thermal shift dTm of 0.65 °C.
`CCOc1ccc(C2C(C#N)=C(N)Oc3cc(N)ccc32)cc1` (stereo not drawn) was tested, and the thermal shift dTm was 0.48 °C.
In the case of `CCOc1ccc(/C=C/C(=O)Nc2ccc(OC)cc2OC)cc1`, the thermal shift dTm was 0.02 °C.
For `CSC1(NC#N)NCCc2c1[nH]c1ccccc21` (stereo not drawn), the thermal shift dTm was inactive: -0.05 °C.
Work on `COc1ccc(-c2cc(-c3ccccc3)n3c(=O)c4ccccc4nc3n2)cc1` yielded a thermal shift dTm of 0.67 °C.
In the case of `CCC(=O)c1ccc(OCC(=O)Nc2ccc(NC(C)=O)cc2)cc1`, the thermal shift dTm was inactive: -0.03 °C.
In the case of `CSC1=N/C(=C\c2ccc(-c3cccc(Cl)c3)o2)C(=O)S1`, the thermal shift dTm was 0.91 °C.
`COc1ccc2c(c1OC)C(=O)N(c1ccc(Cl)cc1)C2` showed a thermal shift dTm of 0.81 °C.
Work on `CC(=O)Nc1ccc(C(=O)NCCc2c[nH]c3ccc(C)cc23)cc1` yielded a thermal shift dTm of 0.86 °C.
`COc1ccc(-c2csc(-c3ccccc3)n2)cc1Br` was tested, and the thermal shift dTm was 0.11 °C.
`Cc1nnc2c3ccccc3nc(-c3ccc(Br)cc3)n12` was tested, and the thermal shift dTm was inactive: -0.04 °C.
Work on `CCOc1ccc(C(=O)Nc2ccc(-c3csc(C)n3)cc2)cc1` yielded a thermal shift dTm of 0.19 °C.
`N#Cc1cnc(SCC(=O)Nc2nc3ccccc3s2)nc1N` showed a thermal shift dTm of 0.32 °C.
`CCCCOc1cccc(C(=O)Nc2cccc(-c3nn[nH]n3)c2)c1` showed a thermal shift dTm of 0.74 °C.
`CCOC(=O)Cc1csc(NC(=O)c2ccc(C)o2)n1` was tested, and the thermal shift dTm was 0.1 °C.
For `Cc1sc(NC(=O)Cc2cccs2)nc1-c1cccc(Cl)c1`, the thermal shift dTm was inactive: -0.17 °C.
`O=C(Nc1nc2ccc(S(=O)(=O)N3CCCC3)cc2s1)c1ccco1` showed a thermal shift dTm of 0.15 °C.
For `O=C(COc1ccc(Cl)cc1Cl)NCCSCc1c(F)cccc1Cl`, the thermal shift dTm was inactive: -0.12 °C.
Work on `O=C(Nc1ccccc1)c1ccc(-c2cccnc2)o1` yielded a thermal shift dTm of 0.04 °C.
In the case of `Cc1cc(Cl)c(S(=O)(=O)NC2CCCCC2)cc1OCC(=O)Nc1nncs1`, the thermal shift dTm was 0.15 °C.
Work on `Nc1c(C(=O)NC2CCCCC2)nnn1-c1cccc(Cl)c1` yielded a thermal shift dTm of 0.83 °C.
`Cc1ccc(NC(=O)Nc2cnccn2)cc1C` showed a thermal shift dTm of 0.04 °C.
Compound `COc1cccc(-c2nc3c(cnn3CC3CC=CCC3)[nH]2)c1O` (stereo not drawn) has a thermal shift dTm of 0.61 °C.
With `CC1Cc2cc(C(=O)Nc3ccc4c(c3)OCCO4)ccc2O1` (stereo not drawn) the thermal shift dTm was 0.14 °C.
`Cn1c(SCCO)nc2c(c1=O)C1(CCCCC1)Cc1ccccc1-2` showed a thermal shift dTm of 0.21 °C.
`Cc1sc(NC(=O)C(F)(F)F)nc1-c1ccc(Cl)cc1` gave a thermal shift dTm of 0.25 °C.
Compound `CC1CCN(C(=O)c2ccccc2C(=O)c2ccc(-c3ccccc3)cc2)CC1` has a thermal shift dTm of 0.16 °C.
`Cc1cc(O)c(-c2n[nH]c3c2C(c2ccccc2)N(Cc2ccco2)C3=O)cc1C` (stereo not drawn) gave a thermal shift dTm of 0.77 °C.
With `Cc1cc(NC(=S)Nc2ccc(C)c(Cl)c2)n[nH]1` the thermal shift dTm was active: 1.55 °C.
With `CCOc1ccc(S(=O)(=O)N2CCC(C(=O)NCCC3=CCCCC3)CC2)cc1` the thermal shift dTm was 0.16 °C.
With `CCC(Sc1nnnn1-c1ccccc1)C(=O)Nc1nnc(C(F)(F)F)s1` (stereo not drawn) the thermal shift dTm was 0.99 °C.
`CCc1ccc(C(=O)Nc2ccc(S(=O)(=O)N(C)C)cc2)s1` showed a thermal shift dTm of 0.48 °C.
Compound `CCOC(=O)c1ccc(NC(=S)Nc2ccc(OCc3ccccc3)cc2)cc1` has a thermal shift dTm of 0.58 °C.
For `Cc1ccccc1-n1c(CCC(=O)O)ccc1-c1ccc(Br)cc1`, the thermal shift dTm was 0.11 °C.
`OCc1ccc(OCc2ccc(F)cc2)c(Br)c1` showed a thermal shift dTm of 0.58 °C.
`COc1ccc(-c2noc(CN(C(C)C)S(=O)(=O)c3ccccc3)n2)cc1` gave a thermal shift dTm of 0.11 °C.
For `Cc1ccc(COc2ccc(CO)cc2Br)cc1`, the thermal shift dTm was 0.54 °C.
With `CC(=O)Nc1cccc(NC(=O)/C=C/c2cccs2)c1` the thermal shift dTm was inactive: -40.9 °C.
`COc1ccc(-c2c(-c3ccc(OC)c(C)c3O)n[nH]c2C(F)(F)F)cc1` gave a thermal shift dTm of 0.76 °C.
`O=C(CCC1CCCN(C(=O)c2ccoc2)C1)NCc1ccccc1F` (stereo not drawn) was tested, and the thermal shift dTm was 0.15 °C.
For `CC(C)(C)c1ccc(OCCNC(=O)c2cccc(Cl)c2)cc1`, the thermal shift dTm was 0.12 °C.
For `CCNC(=O)c1cc(-c2ccc(OC)cc2)nc2ccccc12`, the thermal shift dTm was 0.1 °C.
`Cc1cc(Cl)ccc1OCCNC(=O)c1ccc(Cl)cc1` showed a thermal shift dTm of 0.17 °C.
In the case of `CCCCc1ccc(C(=O)Nc2cccc(-c3nn[nH]n3)c2)cc1`, the thermal shift dTm was 0.51 °C.
`COc1ccc(OC)c(NC(=O)Nc2cccc(NC(C)=O)c2)c1` was tested, and the thermal shift dTm was active: 1.91 °C.
`COc1cccc(OCCOCCOc2ccc([N+](=O)[O-])cc2Cl)c1` showed a thermal shift dTm of 0.11 °C.
With `Cc1ccc(-n2nnnc2SCC(=O)Nc2nnc(C(F)(F)F)s2)cc1C` the thermal shift dTm was active: 1.27 °C.
For `COc1cccc(C(=O)Nc2ccc(N3CCCC3)cc2)c1`, the thermal shift dTm was 0.39 °C.
Work on `N/C(Cc1ccc(Cl)c(Cl)c1)=N\OC(=O)c1ccc2c(c1)OCO2` yielded a thermal shift dTm of 0.21 °C.
For `O=C(Nc1ccc(S(=O)(=O)Nc2ccc(Cl)cc2)cc1)c1ccc2c(c1)OCO2`, the thermal shift dTm was inactive: -0.51 °C.
With `CCSC1=N/C(=C\c2ccc(-c3cccc(Br)c3)o2)C(=O)S1` the thermal shift dTm was 0.39 °C.
Work on `COc1ccc(-c2nc3ccccc3s2)cc1NC(=O)c1ccccc1` yielded a thermal shift dTm of 0.15 °C.
For `CC(C)(O)C#Cc1ccc(C(=O)N2CCN(c3cccc(Cl)c3)CC2)cc1`, the thermal shift dTm was 0.1 °C.
In the case of `COc1ccc(NC(=O)Nc2ccc(C)cc2C)cc1`, the thermal shift dTm was 0.05 °C.
For `COc1ccc(C(=O)O/N=C(\N)Cc2ccc(Cl)c(Cl)c2)cc1`, the thermal shift dTm was 0.4 °C.
`Cc1ccccc1NC(=O)Nc1ccc(C(F)(F)F)cc1` showed a thermal shift dTm of 0.8 °C.
`N#CC1=C(N)Oc2cc(N)ccc2C1c1ccc2ccccc2c1` (stereo not drawn) was tested, and the thermal shift dTm was 0.29 °C.
`OCc1cc(Cl)c(OCc2ccc(Br)cc2)c(Cl)c1` was tested, and the thermal shift dTm was 0.3 °C.
`CCOc1ccc(Nc2nnc(C)s2)cc1` was tested, and the thermal shift dTm was 0.28 °C.
`NC(=O)CSc1nc2sc3c(c2c(=O)n1Cc1ccccc1)CCCCC3` showed a thermal shift dTm of 0.2 °C.
`C(=C\c1nn2c(-c3ccco3)nnc2s1)/c1cccs1` showed a thermal shift dTm of 0.58 °C.
`Fc1ccc(Nc2nc(NCc3ccccc3)c3ccccc3n2)cc1` showed a thermal shift dTm of 0.25 °C.
For `CCOC(=O)Cc1cc(=O)n2[nH]c(COC)c(-c3ccc(Cl)cc3)c2n1`, the thermal shift dTm was 0.69 °C.
For `O=C(NCCc1ccccc1)c1ccc(NC(=O)c2ccccn2)cc1`, the thermal shift dTm was 0.13 °C.
With `COc1ccc(OC)c(NS(=O)(=O)c2ccc(NC(=O)c3ccccc3SC)cc2)c1` the thermal shift dTm was inactive: -4.29 °C.
`COc1ccc(C(=O)Nc2ccc(NC(C)=O)cc2)cc1C` was tested, and the thermal shift dTm was active: 1.48 °C.
With `O=S(=O)(Nc1ccc2c(c1)CCCC2)c1ccc2c(c1)OCCO2` the thermal shift dTm was inactive: -0.01 °C.
`Cc1cc(Br)cc(C)c1NC(=O)/C=C/c1ccco1` was tested, and the thermal shift dTm was 0.52 °C.
With `N/C(=N\OC(=O)c1ccc2c(c1)OCO2)c1ccc(Br)cc1` the thermal shift dTm was 0.03 °C.
With `CCOc1cc(CNc2nnn(C)n2)cc(Br)c1OCc1ccccc1Cl` the thermal shift dTm was 0.72 °C.
`COCCOc1ccc(C(=O)Nc2ccc(NC(C)=O)cc2)cc1` was tested, and the thermal shift dTm was 0.09 °C.
For `Clc1ccc(C2=CC(c3cccs3)n3nnnc3N2)cc1` (stereo not drawn), the thermal shift dTm was 0.63 °C.
In the case of `CCc1cc(-c2n[nH]c(C)c2Oc2ccccc2)c(O)cc1OC`, the thermal shift dTm was inactive: -0.13 °C.
Work on `Cc1ccc(NC(=O)N2CCC(Cc3ccccc3)CC2)cc1` yielded a thermal shift dTm of 0.07 °C.
`C=C(C)COc1ccc(NC(=O)c2cccnc2)cc1` showed a thermal shift dTm of 0.13 °C.
With `Cc1ccc(CCC(=O)Nc2ccc(CC#N)cc2)cc1` the thermal shift dTm was active: 1.11 °C.
`CC(C)(C)c1cc(CN2CCCC(C(N)=O)C2)cc(C(C)(C)C)c1O` (stereo not drawn) gave a thermal shift dTm of 0.84 °C.
With `Cc1ccc2[nH]cc(CCNC(=O)c3cccc(NC(=O)C(C)C)c3)c2c1` the thermal shift dTm was 0.16 °C.
`COc1ccc(S(=O)(=O)NC(C)C2C3CC4CC(C3)CC2C4)cc1` (stereo not drawn) was tested, and the thermal shift dTm was inactive: -0.18 °C.
`CC(=O)Nc1cccc(NC(=O)Nc2cc(C)ccc2C)c1` gave a thermal shift dTm of 0.14 °C.
Compound `N#CCc1ccc(NC(=O)c2ccc(N3CCCCC3)cc2)cc1` has a thermal shift dTm of 0.46 °C.
With `O=C(/C=C/c1cccs1)NCCCCNC(=O)/C=C/c1cccs1` the thermal shift dTm was 0.77 °C.
With `CCOc1ccc(NC(=S)N2CCC(C(N)=O)CC2)cc1` the thermal shift dTm was inactive: -0.13 °C.
`O=S(=O)(c1ccc(Cl)cc1)N1CCCC1c1nc(-c2ccccc2)no1` (stereo not drawn) showed a thermal shift dTm of 0.2 °C.
With `Fc1ccc(-c2csc(Nc3ccc(Cl)cn3)n2)cc1` the thermal shift dTm was 0.07 °C.
`O=C(Nc1ccc2c(c1)OCCO2)c1ccc(F)c(F)c1` gave a thermal shift dTm of 0.13 °C.
For `Nc1c(-c2nc(-c3ccccc3)cs2)nnn1-c1ccccc1`, the thermal shift dTm was inactive: -0.03 °C.
In the case of `CCCC(=O)Nc1ccc(NC(=O)CCc2ccccc2)cc1`, the thermal shift dTm was inactive: -0.1 °C.
For `O=C(Nc1ccc(C(=O)Nc2cccnc2)cc1)c1ccccc1`, the thermal shift dTm was 0.97 °C.
With `COc1cc(NC(=O)Nc2ccccc2)c(OC)cc1Cl` the thermal shift dTm was 0.09 °C.
`CSc1cccc(NC(=O)NCc2ccccn2)c1` was tested, and the thermal shift dTm was 0.18 °C.
Compound `Cc1nc(C)c(-c2csc(Nc3ccc(Cl)cn3)n2)s1` has a thermal shift dTm of 0.16 °C.
For `CCc1cc(OCCOc2cccc3cccnc23)ccc1Cl`, the thermal shift dTm was 0.11 °C.
`O=C(Nc1ccc2ncccc2c1)c1cccc([N+](=O)[O-])c1` showed a thermal shift dTm of 0.53 °C.
Work on `COc1cc(/C=N/O)cc(Cl)c1OCc1ccccc1Cl` yielded a thermal shift dTm of 0.06 °C.
In the case of `CC(=O)Nc1ccc(-c2nc3ccccc3s2)c(Cl)c1`, the thermal shift dTm was 0.68 °C.
Compound `O=C(NCCCn1ccnc1)c1cn(Cc2ccc(F)cc2Cl)nn1` has a thermal shift dTm of 0.09 °C.
For `CCc1cccc(NC(=O)Nc2ccc(F)cc2)c1`, the thermal shift dTm was inactive: -1.29 °C.
For `COc1ccc(OC(=O)COc2ccc(C)cc2Br)cc1`, the thermal shift dTm was 0.44 °C.
With `Cc1ccc(C(=O)Nc2ccc3c(c2)OCO3)cc1S(=O)(=O)Nc1cccc(C)c1C` the thermal shift dTm was active: 1.17 °C.
`CN1CCN(S(=O)(=O)c2ccc(NC(=O)c3ccc(Cl)s3)cc2)CC1` was tested, and the thermal shift dTm was 0.13 °C.
With `O=C(Nc1ccon1)c1cc(-c2ccccc2)nc2ccccc12` the thermal shift dTm was 0.28 °C.
In the case of `Fc1ccc(Nc2nnc(-c3cccnc3)s2)cc1Cl`, the thermal shift dTm was inactive: -0.63 °C.
With `Cc1cc(-c2nc3c(cnn3Cc3ccco3)[nH]2)ccc1O` the thermal shift dTm was 0.23 °C.
Compound `CCc1ccc(C(=O)Nc2cccc(-c3nn[nH]n3)c2)s1` has a thermal shift dTm of 0.28 °C.
`Cc1ccc2c(c1)C(c1c[nH]c3ccccc13)(c1c[nH]c3ccccc13)C(=O)N2C` showed a thermal shift dTm of 0.58 °C.
